# About 170 (0.05%) of roughly 340,000 compounds were called active. This list was built around the results that the source calls inconclusive (neither active nor inactive); the mix of calls is not that of the screen. Calls follow the shape of the dose curve; as a rule, active = well fitted inhibition curve with a large enough effect in the signal ratio, with a control signal flat (not every such curve was filed as active); inconclusive = small, poorly fitted or top-dose-only effect, or effect the other way, or a change in a side signal; inactive = flat fitted curve, though single readings scatter; the % refers to the signal ratio. Potencies of inconclusive entries are doubtful fits and often do not repeat.
# Experiment: qHTS Assay to Find Inhibitors of Chronic Active B-Cell Receptor Signaling;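 as to activity change, negative = inhibition: plate controls were basal doxycycline-induced cells for no effect and cells given 10 µM MG132 for full effect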
# Conditions: ABC-DLBCL IkBa-CBG/CBR reporter, luminescence ratio (green luciferase fused to IkBa over red control in TMD8 lymphoma cells), 4 h
# In short: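 Concentration-response series (up to 46 uM) were applied to TMD8 dual-reporter cells for 4 h at 37C with doxycycline. Green/red ratio, after filter-overlap correction, defined %Activity; red signal alone was normalised to basal cells and zero luminescence.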
# [1] = activity change, negative = inhibition: at 46.1 µM (top of the series) unless noted
# Potency is read from the fitted curve at half-maximal effect.
smiles,measurement,setting,value
Cc1ccc(C)c(NC(=O)CCC(=O)NNC(=O)C(c2ccccc2)c2ccccc2)c1,"activity change, negative = inhibition",[1],inconclusive: -11.4%
Cc1ccc(CSCC(=O)N2CCOCC2)cc1,"activity change, negative = inhibition",[1],inconclusive: -23.1%
O=S(=O)(c1ccc(F)cc1)N1CCN(CC(O)COc2ccccc2F)CC1 (stereo not drawn),"activity change, negative = inhibition",[1],inconclusive: 2.1%
COc1ccc(CN2CCNC(=O)C2CC(=O)N(C)Cc2nonc2C)c(F)c1 (stereo not drawn),"activity change, negative = inhibition",[1],inactive
CC(=O)N(Cc1ccc(Br)cc1)c1ccccc1C(=O)O,"activity change, negative = inhibition",[1],inconclusive: 19.6%
COc1cccc(/C(O)=C2/C(=O)C(=O)N(c3cc(C)on3)C2c2cccs2)c1 (stereo not drawn),"activity change, negative = inhibition",[1],inconclusive: -150%
O=C(NCCc1ccccn1)c1cc2ccccc2o1,"activity change, negative = inhibition",[1],inconclusive: 319%
O=C(Nc1ccc2ccccc2c1)c1cccc(F)c1,Potency,[1],"inconclusive: 22.4 µM [falling, partial curve]"
COCCNC(=O)c1sc2ncn(CC(=O)Nc3ccc(C)c(Cl)c3)c(=O)c2c1C,"activity change, negative = inhibition",[1],inactive
CC1(C)C(=O)N(c2ccccc2)C1c1ccccc1O (stereo not drawn),Potency,[1],"inconclusive: 25.1 µM [falling, single point]"
CCOc1ccc(CCNC(=O)C2CCCN(C(=O)N(C)C)C2)cc1OCC (stereo not drawn),"activity change, negative = inhibition",[1],inconclusive: 4.04%
CCN1C(=S)N[C@@H](c2ccccc2)C(C(=O)OC)=C1C,"activity change, negative = inhibition",[1],inconclusive: 16.5%
same,"activity change, negative = inhibition",at 46.1 µM (top of the series),inactive: 1.56%
O=S(=O)(Nc1ccccn1)c1cc(Cl)ccc1Cl,"activity change, negative = inhibition",[1],inconclusive: 1.55%
Cc1cc2nc(CCN(Cc3cccnc3)C(=S)Nc3ccccc3)[nH]c2cc1C,"activity change, negative = inhibition",[1],inactive
O=C(NC(=S)NCCc1ccccn1)c1ccccc1,Potency,[1],"inconclusive: 25.1 µM [falling, single point]"
COc1ccccc1N1CCN(C(=O)c2ccc3c(=O)n(Cc4ccco4)c(=S)[nH]c3c2)CC1,"activity change, negative = inhibition",[1],inconclusive: 7.19%
COc1ccccc1CN(C)S(=O)(=O)c1cccs1,"activity change, negative = inhibition",[1],inactive
C(=N/N1CCN(c2ccccc2)CC1)/c1ccncc1,"activity change, negative = inhibition",[1],inconclusive: 18.1%
CCOc1ccc(C2C3=C(CCCC3=O)Nc3ccc4ncccc4c32)cc1 (stereo not drawn),Potency,[1],"inconclusive: 14.1 µM [falling, single point]"
Cc1ccccc1/C=C/C1=NCCN1,Potency,[1],"inconclusive: 29.1 µM [falling, single point]"
COC(=O)c1ccc2c(=O)n3nc(Nc4cc(OC)ccc4OC)sc3nc2c1,Potency,[1],"inconclusive: 0.562 µM [rising, full curve, poor fit]"
CCn1c(NCc2cc(Br)ccc2NS(=O)(=O)c2ccc(C)cc2)nc2ccccc21,Potency,[1],"inconclusive: 3.16 µM [rising, full curve, poor fit]"
COc1c(O[C@@H]2O[C@H](CO)[C@@H](O)[C@H](O)[C@H]2O)cc2c(c1OC)-c1ccc(SC)c(=O)cc1C(NC(C)=O)CC2 (stereo partly drawn),"activity change, negative = inhibition",[1],inactive
CCOc1ccccc1NC(=O)CN(Cc1ccccc1)S(C)(=O)=O,"activity change, negative = inhibition",[1],inconclusive: -1.79%
Cc1ccc(CNC(=O)c2cc3c(-c4ccc(Cl)cc4)nn(C)c3s2)o1,"activity change, negative = inhibition",[1],inconclusive: 27.5%
C=CCN=C(NC#N)SCCc1ccccc1,"activity change, negative = inhibition",[1],inconclusive: -1.09%
COc1cccc(C(=O)NNS(=O)(=O)c2ccc(F)cc2)c1,Potency,[1],"inconclusive: 11.2 µM [falling, partial curve, poor fit]"
O=C(Cc1ccc(Br)cc1)Nc1cccc(Cl)c1,"activity change, negative = inhibition",[1],inconclusive: 4.8%
COc1cccc(NC(=O)COc2ccc(N3CC(C(=O)NCC(C)C)CC3=O)cc2)c1 (stereo not drawn),"activity change, negative = inhibition",[1],inconclusive: 16.7%
Nc1ncnc2c1ncn2CCc1ccccc1,"activity change, negative = inhibition",[1],inconclusive: 5.8%
COCCCNC(=O)Cn1ncc2c(=O)oc3ccccc3c21,"activity change, negative = inhibition",[1],inactive
O=C(Cc1ccc(NS(=O)(=O)c2ccc(F)cc2)cc1)NCc1cccnc1,"activity change, negative = inhibition",[1],inactive
c1ccc(CCNc2nc(-c3ccccn3)cs2)cc1,Potency,[1],"inconclusive: 12.6 µM [falling, partial curve]"
Cc1ccc(NC(=O)/C(=C\c2ccccc2)NC(=O)c2ccco2)cc1,"activity change, negative = inhibition",[1],inconclusive: 3.81%
COc1cccc(CNC(=O)CSc2nc(=O)n(Cc3ccncc3)c3c2CCC3)c1,Potency,[1],"inconclusive: 13 µM [falling, partial curve, poor fit]"
C=CCc1ccccc1OCC(=O)N/N=C/c1ccc(OC(C)=O)cc1OC(C)=O,Potency,[1],"inconclusive: 20.6 µM [falling, single point]"
COc1ccc(/C=C2\NC(=S)N(CC3CCCO3)C2=O)c(OC)c1 (stereo not drawn),"activity change, negative = inhibition",[1],inconclusive: -2.46%
COc1ccc(C2/C=C\CN(C(=O)CC(C)(C)C)CC(=O)N2Cc2ccc(F)cc2)cc1 (stereo not drawn),"activity change, negative = inhibition",[1],inactive
C=CCn1c(SCC(=O)Nc2ccccc2OC)nnc1-c1ccco1,"activity change, negative = inhibition",[1],inconclusive: -20.3%
Fc1ccc2nc(N3CCCC3)sc2c1,"activity change, negative = inhibition",[1],inconclusive: 0.978%
COC(=O)c1cc2sccc2n1CC(=O)Nc1cc(OC)cc(OC)c1,Potency,[1],"inconclusive: 10 µM [falling, partial curve]"
Cc1ccc(S(=O)(=O)N2CCCC2C(=O)N2CCCCCC2)cc1 (stereo not drawn),"activity change, negative = inhibition",[1],inconclusive: 9.8%
Cc1cccc(-n2cnc3cc(C(=O)NCc4ccccc4Cl)ccc32)c1,"activity change, negative = inhibition",[1],inconclusive: 0.124%
CCOC(=O)C1CCN(C(=O)Nc2ccc3nc(C)c(C)nc3c2)CC1,"activity change, negative = inhibition",[1],inconclusive: -3.51%
NC(=O)c1ccccc1NC(=O)c1ccccc1F,"activity change, negative = inhibition",[1],inconclusive: -5.21%
CCOc1ccc2[nH]c(=O)c(CN(Cc3ccccc3OC)C(=O)c3ccccc3)cc2c1,Potency,[1],"inconclusive: 8.2 µM [falling, partial curve, poor fit]"
CC(Sc1nc2cc(Cl)ccc2s1)C(=O)Nc1cccc(S(=O)(=O)N2CCOCC2)c1 (stereo not drawn),"activity change, negative = inhibition",[1],inactive
Oc1ccc(Cl)cc1/C=N/c1nccs1,"activity change, negative = inhibition",[1],inconclusive: -9.44%
O=C(CSC1=NC(=O)C(c2ccccc2)C(=O)N1)Nc1cccc(Cl)c1 (stereo not drawn),Potency,[1],"inconclusive: 20.6 µM [falling, partial curve, poor fit]"
Brc1ccc(-c2noc(-c3ccccn3)n2)o1,Potency,[1],"inconclusive: 35.5 µM [falling, single point]"
Cn1c(-c2nonc2N)nc2ccccc21,"activity change, negative = inhibition",[1],inactive
CCOC(=O)c1[nH]cnc1C(=O)Nc1ccncc1,Potency,[1],"inconclusive: 3.66 µM [rising, partial curve, poor fit]"
O=[N+]([O-])c1ccc(/C=C/c2ccc3cccc(O)c3n2)cc1,Potency,[1],"inconclusive: 22.4 µM [falling, single point]"
COc1ccc(N2CCN(c3ncnc4scc(-c5ccccc5)c34)CC2)cc1,Potency,[1],"inconclusive: 7.08 µM [falling, partial curve]"
Cc1ccc(NC(=O)c2ccn(C(=O)Nc3ccccc3)n2)c(C)c1,Potency,[1],"inconclusive: 35.5 µM [falling, single point]"
COC(=O)c1ccc(NC(=O)CO/N=C2\CCCc3nonc32)cc1,"activity change, negative = inhibition",[1],inconclusive: 3.43%
Cc1nnc(NC(=O)c2ccc(N3CCCC3=O)cc2)s1,"activity change, negative = inhibition",[1],inactive
C=CC[C@@H](CC(=O)N(CCO)Cc1ccccc1)C(=O)N[C@H](COC(=O)[C@@H](CC=C)CC(=O)OC(C)(C)C)Cc1ccccc1,"activity change, negative = inhibition",[1],inconclusive: -5.58%
S=c1[nH]nc(C2CCCCC2)n1/N=C/c1ccc(Br)cc1,"activity change, negative = inhibition",[1],inconclusive: 3.65%
COC(=O)c1ccc(Cn2nnc3ccccc32)cc1,"activity change, negative = inhibition",[1],inactive
CC(=O)C1=C(O)C(=O)N(c2ccc(C(=O)O)cc2)C1c1ccccc1 (stereo not drawn),Potency,[1],"inconclusive: 7.31 µM [falling, partial curve, poor fit]"
COc1cccc(OCC(O)CN2CCN(CCO)CC2)c1 (stereo not drawn),"activity change, negative = inhibition",[1],inconclusive: 13.8%
CC(C)CC(=O)NC(NC(=O)CC(C)C)c1cccc([N+](=O)[O-])c1,"activity change, negative = inhibition",[1],inactive
COc1ccccc1N1CCN(CCCCCCOc2ccc(F)cc2)CC1,"activity change, negative = inhibition",[1],inactive
CN1CCN(CC(=O)Nc2nc(-c3c[nH]c4ccccc34)cs2)CC1,Potency,[1],"inconclusive: 31.6 µM [rising, single point]"
COc1cccc(C(C(=O)NCC2CCCO2)N(C(=O)Cn2nnc3ccccc32)c2ccc(NC(C)=O)cc2)c1 (stereo not drawn),"activity change, negative = inhibition",[1],inconclusive: -0.411%
CCC(C)(C)NCC(=O)Nc1ccc(OC(F)(F)F)cc1,"activity change, negative = inhibition",[1],inconclusive: 13.5%
Cc1ccc(Nc2ncnc3ccccc23)cc1,"activity change, negative = inhibition",[1],inconclusive: 0%
Cc1nn(C)c(Oc2ccccc2)c1CCNC(=O)CCl,"activity change, negative = inhibition",[1],inconclusive: 0.155%
CS(=O)(=O)c1ccccc1-c1nc(-c2ccc(C(F)(F)F)cc2)no1,"activity change, negative = inhibition",[1],inconclusive: 13.6%
O=C(CSc1nnc2ccccn12)c1ccccc1,Potency,[1],"inconclusive: 29.1 µM [rising, single point]"
COc1cccc2[nH]c(C(=O)NCCc3ccccc3)cc12,Potency,[1],"inconclusive: 14.1 µM [falling, partial curve]"
COCCCn1c(=O)c2sccc2n2c(CCCC(=O)NCc3ccccc3OC)nnc12,"activity change, negative = inhibition",[1],inactive
CCCSC1=C(C#N)C(c2cccs2)CC(=O)N1 (stereo not drawn),"activity change, negative = inhibition",[1],inactive
COc1ccccc1/C=C/C1(C(=O)NC2CCCC2)CC(=O)N1c1ccccc1 (stereo not drawn),"activity change, negative = inhibition",[1],inconclusive: 5.9%
Cc1csc(NC(=O)CSc2nnc(C)c(=O)n2N)n1,"activity change, negative = inhibition",[1],inconclusive: 1.52%
COC(C[C@H]1O[C@H]1C(=O)COCc1ccccc1)OC,"activity change, negative = inhibition",[1],inconclusive: -0.625%
Cc1cc(Nc2nc3ccccc3c3nnc(C)n23)ccc1Br,Potency,[1],"inconclusive: 2.82 µM [rising, partial curve, poor fit]"
COc1ccc(-n2c(CN3CCOCC3)nc3ccc([N+](=O)[O-])cc3c2=O)c(OC)c1,"activity change, negative = inhibition",[1],inconclusive: 2.31%
Cc1[nH]nc(-c2ccc(O)cc2O)c1-c1ccc(Cl)cc1,"activity change, negative = inhibition",[1],inconclusive: -14.7%
Cc1ccccc1C(N)c1ccncc1 (stereo not drawn),"activity change, negative = inhibition",[1],inactive
N#CC1=C2SC=C(c3ccc(Br)cc3)N2CCCC1=O,"activity change, negative = inhibition",[1],inconclusive: -1.77%

# Looked up one by one from above:
smiles,measurement,setting,value
Cc1[nH]nc(-c2ccc(O)cc2O)c1-c1ccc(Cl)cc1,"activity change, negative = inhibition",[1],inconclusive: -14.7%
COc1ccccc1N1CCN(CCCCCCOc2ccc(F)cc2)CC1,"activity change, negative = inhibition",[1],inactive
COc1cccc(NC(=O)COc2ccc(N3CC(C(=O)NCC(C)C)CC3=O)cc2)c1 (stereo not drawn),"activity change, negative = inhibition",[1],inconclusive: 16.7%
CCOC(=O)C1CCN(C(=O)Nc2ccc3nc(C)c(C)nc3c2)CC1,"activity change, negative = inhibition",[1],inconclusive: -3.51%

# Nothing new here: entries from further up.
smiles,measurement,setting,value
COc1ccc(CN2CCNC(=O)C2CC(=O)N(C)Cc2nonc2C)c(F)c1 (stereo not drawn),"activity change, negative = inhibition",[1],inactive
CC(=O)N(Cc1ccc(Br)cc1)c1ccccc1C(=O)O,"activity change, negative = inhibition",[1],inconclusive: 19.6%
COc1cccc(/C(O)=C2/C(=O)C(=O)N(c3cc(C)on3)C2c2cccs2)c1 (stereo not drawn),"activity change, negative = inhibition",[1],inconclusive: -150%

# From PubChem BioAssay AID493014 (National Center for Advancing Translational Sciences (NCATS), 2011)
